# Laboratory results from patent US8546320B2, “Hsp9O-targeted anti-cancer chimeric peptide” (Kyoto University, priority 2008, dated 2013).
# Not every detail of the peptide structures is certain; ends, links or a residue may be inferred. Where a SMILES comes first, the peptide text is derived from it.
# Columns and labels:
# [1] = tested on: mouse leukemia cell strain EL4; format: cell-based
# [2] = tested on: Hsp90 client proteins in U937 cells; assay: Western blotting of Hsp90 client proteins, U937; format: cell-based, human; conditions: U937, overnight
# Caki-1 = format: cell-based, human; conditions: wild-type peptide = 100%
# Description: A total of 3×10^3 cells were inoculated per well on a 96 well plate and cultured in a medium containing 10% FBS for 24 hours, and incubated with 100 μl of a peptide having a gradual increase in concentration at 37° C. for 48 to 72 hours. The survival rate of the cells was measured by using WST-8 solution (Cell Count Reagent SF; Nacalai Tesque, Inc.).
# Respective variant peptides were subjected to cell viability assay. Specifically, Caki-1 (American Type Culture Collection (Manassas, Va.) was inoculated in a total amount of 3×10^3 cells per well on a 96 well plate (Nunc™); the cells were cultured in a medium (DMEM (Tesque, Inc.) containing 10% FBS (fetal bovine serum; Biowest)) for 24 hours and incubated with 100 μl of a peptide having a gradual increase in concentration at 37° C. for 48 to 72 hours. The cell survival rate was measured by using WST-8 solution (Cell Count Reagent SF; Nacalai Tesque, Inc.) and compared with that of the wild-type Antp-TPR peptide.
# Respective variant peptides were subjected to cell viability assay. […]
# U937 [3] = assay: Flow cytometry (annexin V/PI, JC-1, caspase 3,7), U937; format: cell-based, human; conditions: U937, 50 μM, overnight
# U937 [4] = format: cell-based, human; conditions: wild-type peptide = 100%
# Description: A total of 3×10^3 cells per well were inoculated onto a 96 well plate, and incubated in a medium containing 10% FBS with 100 μl of a peptide diluted stepwise at 37° C. for 48 to 72 hours. The survival rate of the cells was measured by using WST-8 solution (Cell Count Reagent SF; Nacalai Tesque, Inc.).
# U937 [5] = assay: Penetration experiment, confocal microscope, U937; format: cell-based, human; conditions: U937, calcein-containing medium
# Description: TPR-TAMRA (TAMRA labeled body) or Antp-TPR-TAMRA (TAMRA labeled body) was added to 1×10^6 peripheral blood mononuclear cells (PBMCs), which were prepared from U937 cells, a mouse leukemia cell strain EL4 or mouse peripheral blood, at a final concentration of 10 μM, and the mixture was cultured for 1 hour. The peptide incorporated in the cell or influx of the medium into the cell after peptide penetration was observed under a confocal microscope (Olympus FV1000 (Olympus)), using a medium containing calcein.
# TPR-TAMRA (TAMRA labeled body) or Antp-TPR-TAMRA (TAMRA labeled body) was added to 1×10^6 U937 cells to a final concentration of 10 μM; the mixture was cultured for one hour; and then the behavior of the peptide incorporated into the cell or the influx of the medium into the cell after peptide penetration was observed under a confocal microscope (Olympus FV1000 (Olympus)), using a calcein-containing medium.
# [6] = tested on: Human pancreatic cancer cells (Bxpc 3); assay: Anti-tumor effect in cancer-bearing animal models, intravenous administration; format: in vivo, nude mice (Balb/c Slc-nu/nu); conditions: thrice a week, 9 times, control 749 mm^3
# T47D = assay: Flow cytometry (annexin V, caspase 3,7, PI), T47D; format: cell-based, human; conditions: 68 μM
# [7] = tested on: human normal B cell (RPMI1788); format: cell-based; conditions: human normal B cells
# [8] = tested on: Human pancreatic cancer cells (Bxpc 3); assay: Anti-tumor effect in cancer-bearing animal models, local administration; format: in vivo; conditions: Bxpc 3 tumor in nude mice, compared with PBS
# Description: Human pancreatic cancer cells (Bxpc 3) (5.0×10^6) were suspended in 150 μl of phosphate-buffered physiological saline (PBS) and transplanted subcutaneously into nude mice (BALB/c Slc-nu/nu). After 5 days, 150 μl of the Antp-TPR peptide suspended in PBS at a concentration of 1 mg/kg to 5 mg/kg was administered to the solid cancer every two days for a total of nine times, and the tumor contraction effect was examined. The tumor diameter was measured with calipers and the tumor volume (mm^3) was calculated according to the formula: length (mm)×minor diameter (mm)^2×0.5.
# Mouse PBMCs = format: cell-based
# HEK293T = assay: Flow cytometry (annexin V, caspase 3,7, PI), HEK293T; format: cell-based, human; conditions: 68 μM
compound,measurement,setting,value
CC[C@H](C)[C@H](NC(=O)[C@H](CCCNC(=N)N)NC(=O)[C@H](C)NC(=O)[C@H](Cc1ccc(O)cc1)NC(=O)[C@H](C)NC(=O)[C@H](CCCCN)NC(=O)[C@H](CCCCN)NC(=O)[C@H](CCCCN)NC(=O)[C@H](Cc1c[nH]c2ccccc12)NC(=O)[C@H](CCCCN)NC(=O)[C@H](CCSC)NC(=O)[C@H](CCCNC(=N)N)NC(=O)[C@H](CCCNC(=N)N)NC(=O)[C@H](CC(N)=O)NC(=O)[C@H](CCC(N)=O)NC(=O)[C@H](Cc1ccccc1)NC(=O)[C@H](Cc1c[nH]c2ccccc12)NC(=O)[C@@H](NC(=O)[C@H](CCCCN)NC(=O)[C@@H](NC(=O)[C@H](CCC(N)=O)NC(=O)[C@@H](N)CCCNC(=N)N)[C@@H](C)CC)[C@@H](C)CC)C(=O)NCC(=O)N[C@@H](CC(N)=O)C(=O)N[C@@H](CO)C(=O)N[C@@H](Cc1ccc(O)cc1)C(=O)N[C@@H](Cc1ccccc1)C(=O)N[C@@H](CCCCN)C(=O)O [Antp-TPR] (H-RQIKIWFQNRRMKWKKKAYARIGNSYFK-OH; N-terminus and C-terminus assumed),cell-killing effect,[1],has a cell-killing effect
same,amounts of Hsp90 client proteins expressed,[2],reduced
same,Anti-cancer activity (% relative to wild-type peptide),Caki-1,100%
same,Decrease in cell survival rate (% relative to wild-type peptide),Caki-1,100%
same,annexin V-positive cells,U937 [3],Increase of annexin V-positive cells
same,caspase 3 and 7-active cells,U937 [3],Increase of the caspase 3 and 7-active cells
same,mitochondria membrane potential (JC-1),U937 [3],Change of the mitochondria membrane potential was observed
same,Anti-cancer activity (% relative to wild-type peptide),U937 [4],100%
same,Decrease in cell survival rate (% relative to wild-type peptide),U937 [4],100%
same,destruction of the cell membrane (calcein influx),U937 [5],without destruction of the cell membrane
same,average tumor volume on 58th day,[6]; 1 mg/kg intravenous,371 mm^3
same,average tumor volume on 58th day,[6]; 5 mg/kg intravenous,204 mm^3
same,"annexin V-positive or caspase 3,7-positive cell populations",T47D,"increase of annexin V-positive or caspase 3,7-positive cell populations"
same,cell-killing effect,[7],no cell-killing effect
same,tumor contraction effect,[8],tumor contraction effect was observed
same,cell-killing effect,Mouse PBMCs,no cell-killing effect
same,"influence on normal cells (annexin V, caspase 3,7, PI)",HEK293T,no influence
